Primary screen of a compound library

By UniProt entry, the sequences of proteins in these tests, tags left out.
UniProt P9WFT3, whole entry: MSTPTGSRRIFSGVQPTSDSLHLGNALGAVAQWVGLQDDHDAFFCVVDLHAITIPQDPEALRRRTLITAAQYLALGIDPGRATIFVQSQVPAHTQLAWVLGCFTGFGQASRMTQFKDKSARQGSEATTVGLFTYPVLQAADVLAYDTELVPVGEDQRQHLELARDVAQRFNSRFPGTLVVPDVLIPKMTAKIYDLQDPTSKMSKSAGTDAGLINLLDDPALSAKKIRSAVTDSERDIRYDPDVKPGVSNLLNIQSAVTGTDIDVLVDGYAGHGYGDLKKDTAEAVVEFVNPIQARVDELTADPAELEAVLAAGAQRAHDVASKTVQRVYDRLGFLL
UniProt P9WPC5, whole entry: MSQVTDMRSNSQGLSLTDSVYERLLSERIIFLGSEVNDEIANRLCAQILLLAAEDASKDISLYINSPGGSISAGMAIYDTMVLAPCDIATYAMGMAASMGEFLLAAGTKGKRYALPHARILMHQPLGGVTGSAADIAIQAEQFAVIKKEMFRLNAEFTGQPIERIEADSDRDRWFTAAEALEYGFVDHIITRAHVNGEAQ
UniProt P9WPC3, whole entry partner: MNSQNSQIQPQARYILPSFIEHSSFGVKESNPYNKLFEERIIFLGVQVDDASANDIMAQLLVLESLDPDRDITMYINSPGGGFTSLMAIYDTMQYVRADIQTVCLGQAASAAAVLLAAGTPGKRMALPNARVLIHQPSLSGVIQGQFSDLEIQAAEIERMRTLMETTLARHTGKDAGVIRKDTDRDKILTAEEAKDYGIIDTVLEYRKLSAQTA
UniProt P9WNZ1, whole entry: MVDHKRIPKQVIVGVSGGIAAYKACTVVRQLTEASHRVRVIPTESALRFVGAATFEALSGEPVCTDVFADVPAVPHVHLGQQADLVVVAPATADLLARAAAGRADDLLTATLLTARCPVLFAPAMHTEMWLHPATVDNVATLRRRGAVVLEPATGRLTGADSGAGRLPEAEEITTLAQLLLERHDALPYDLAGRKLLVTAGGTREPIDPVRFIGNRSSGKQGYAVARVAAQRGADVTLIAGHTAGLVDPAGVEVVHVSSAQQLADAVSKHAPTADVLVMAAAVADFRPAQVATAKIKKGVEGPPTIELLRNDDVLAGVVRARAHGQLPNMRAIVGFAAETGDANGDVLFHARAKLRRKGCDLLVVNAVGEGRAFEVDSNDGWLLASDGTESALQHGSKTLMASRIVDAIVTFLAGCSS
UniProt I6X8D2, whole entry: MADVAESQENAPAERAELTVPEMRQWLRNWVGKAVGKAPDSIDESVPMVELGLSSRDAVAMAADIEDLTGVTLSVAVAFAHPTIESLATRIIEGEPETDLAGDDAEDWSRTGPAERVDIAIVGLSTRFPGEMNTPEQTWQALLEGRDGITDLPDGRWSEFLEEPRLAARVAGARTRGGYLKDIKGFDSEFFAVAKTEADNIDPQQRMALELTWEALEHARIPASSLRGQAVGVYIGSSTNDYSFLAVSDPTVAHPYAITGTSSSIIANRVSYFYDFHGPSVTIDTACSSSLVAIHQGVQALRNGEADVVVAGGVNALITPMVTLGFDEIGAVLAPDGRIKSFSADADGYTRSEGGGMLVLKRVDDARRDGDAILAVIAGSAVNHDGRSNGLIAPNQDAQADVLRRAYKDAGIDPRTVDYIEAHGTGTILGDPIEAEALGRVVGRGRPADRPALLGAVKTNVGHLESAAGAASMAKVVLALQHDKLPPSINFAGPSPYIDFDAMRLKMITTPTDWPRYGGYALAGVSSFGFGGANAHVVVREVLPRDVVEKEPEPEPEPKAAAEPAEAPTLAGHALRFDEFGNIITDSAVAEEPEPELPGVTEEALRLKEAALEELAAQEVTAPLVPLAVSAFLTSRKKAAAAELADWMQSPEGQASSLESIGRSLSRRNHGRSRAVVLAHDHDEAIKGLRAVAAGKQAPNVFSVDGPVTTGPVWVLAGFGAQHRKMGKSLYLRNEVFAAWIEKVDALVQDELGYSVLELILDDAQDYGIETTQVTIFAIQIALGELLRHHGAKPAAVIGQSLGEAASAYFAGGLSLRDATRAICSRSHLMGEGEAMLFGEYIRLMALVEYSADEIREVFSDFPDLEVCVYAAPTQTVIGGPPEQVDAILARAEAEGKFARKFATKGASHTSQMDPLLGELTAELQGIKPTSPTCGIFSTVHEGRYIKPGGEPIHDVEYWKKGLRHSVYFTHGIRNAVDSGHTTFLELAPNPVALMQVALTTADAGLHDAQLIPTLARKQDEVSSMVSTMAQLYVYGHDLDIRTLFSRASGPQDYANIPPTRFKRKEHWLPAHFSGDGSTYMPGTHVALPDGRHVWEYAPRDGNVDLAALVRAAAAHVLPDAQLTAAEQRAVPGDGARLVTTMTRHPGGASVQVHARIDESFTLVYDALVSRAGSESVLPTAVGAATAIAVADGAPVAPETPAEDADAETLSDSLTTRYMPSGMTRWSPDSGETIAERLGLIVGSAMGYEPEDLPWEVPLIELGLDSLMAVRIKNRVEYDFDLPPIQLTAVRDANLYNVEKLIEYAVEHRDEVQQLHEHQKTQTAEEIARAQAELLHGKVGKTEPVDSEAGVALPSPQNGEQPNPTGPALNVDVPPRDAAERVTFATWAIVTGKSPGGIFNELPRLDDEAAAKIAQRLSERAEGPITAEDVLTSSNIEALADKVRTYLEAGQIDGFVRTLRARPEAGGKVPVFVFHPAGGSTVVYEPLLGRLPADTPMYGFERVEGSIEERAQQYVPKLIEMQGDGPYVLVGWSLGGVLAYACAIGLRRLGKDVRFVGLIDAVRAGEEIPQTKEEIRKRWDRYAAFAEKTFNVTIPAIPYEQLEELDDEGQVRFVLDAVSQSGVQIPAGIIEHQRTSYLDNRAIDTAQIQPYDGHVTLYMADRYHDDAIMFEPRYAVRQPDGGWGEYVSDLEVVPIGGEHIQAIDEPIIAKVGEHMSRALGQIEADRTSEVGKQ

Values are the deposited “Percent Effect”, in %. How 0% and 100% were set is not recorded. Most values in the screen are low, and negative values occur. This is an unselected part of the compounds tested. A dash means the value is not listed here; it may have been measured.

MtTrpRS: 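Tryptophan-tRNA ligase, Mycobacterium tuberculosis (UniProt P9WFT3). Enzyme assay of tryptophanyl-tRNA synthetase; the read-out is not stated. Compounds at 10 µM. Higher most likely means stronger inhibition; the record gives no direction and few retests gave an IC50. Size under these conditions: about 65,000 compounds, about 64 of them at 50% or above in at least one test.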
Toxoplasma: 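Assay of Toxoplasma gondii numbers, read through their beta-galactosidase reporter with a colour substrate. Compounds at 10 µM. Higher reads as fewer parasites (inferred from which compounds were picked for retests). Size under these conditions: about 67,000 compounds, about 260 of them at 50% or above in at least one test.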
ClpP1P2: 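ClpP1P2, Mycobacterium tuberculosis (UniProt P9WPC5 and UniProt P9WPC3). Protease assay of ClpP1P2, read by the AMC dye that it sets free. Compounds at 50 µM. Higher reads as stronger inhibition, judged from the few compounds that gave an IC50. Most other retested compounds had strongly negative values. Of about 69,000 compounds tested this way, about 10 (0.015%) reached 50% or more in at least one test.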
CoaBC: 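Coenzyme A biosynthesis protein CoaBC, Mycobacterium tuberculosis (UniProt P9WNZ1). Enzyme assay of CoaBC with a phosphate dye (Biomol Green) read at 650 nm. Concentration: 30 µM. Direction is inferred from only a few compounds that gave an IC50; most scored high, so higher reads as stronger inhibition. Most strong results did not repeat in a second test. Size under these conditions: about 67,000 compounds, about 40 of them at 50% or above in at least one test.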
Pks13 thioesterase: 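Polyketide synthase Pks13, Mycobacterium tuberculosis (UniProt I6X8D2). Enzyme assay of the thioesterase domain of polyketide synthase 13; the read-out is not stated. Concentration: 30 µM. Higher reads as stronger inhibition (inferred from which compounds were picked for retests). Size under these conditions: about 67,000 compounds, about 300 of them at 50% or above in at least one test.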

structure,MtTrpRS,Toxoplasma,ClpP1P2,CoaBC,Pks13 thioesterase
CCOCC1CCN(C(=O)C(c2cccc(F)c2)N(C)C)CC1 (stereo not shown),-1.464,19.55,-4.218,-1.794,-16.75
CN(C)C(=O)[C@@H]1C[C@@H]2CCN(Cc3nccs3)C[C@@H]2O1,1.657,-,4.06,8.997,-18.91
Cc1csc2nc3n(c(=O)c12)CCN(C(=O)c1ccncc1)CC3,-0.9197,14.29,1.019,-0.2778,-25.45
O=C(O)C(F)(F)F.O=C(O)C(F)(F)F.O=C(O)C(F)(F)F.[H][C@@]12C[C@H](C(=O)NCCN(C)C)N(C)[C@]1([H])CN(c1ncccn1)C2,-,7.699,-,-,-
CC(C)Cc1nc(C[S+]([O-])CC(=O)NCc2ccccc2)no1 (stereo not shown),-0.9202,8.491,2.765,2.93,-27.89
COc1cncc(N2CCN(Cc3cccn3C)CC2)n1,-3.631,-0.9091,-2.65,9.627,-
CCn1nc(C)c(C(=O)NCc2csc(C3CC3)n2)c1C,-3.964,24.92,2.826,5.99,-14.25
COc1cccc(SCC(=O)N2CCC(N3CCCC(O)C3)CC2)c1 (stereo not shown),2.692,-14.89,-4.534,1.72,-23.62
O=C(CN1C(=O)CC2(CCCC2)C1=O)NCCc1nccs1,3.797,-27.53,-3.901,-4.177,7.01
CC(C)NC(=O)CNC(C)c1c(F)cccc1Cl (stereo not shown),-0.2571,-6.154,-3.551,3.201,2.557
Cc1nc(C2(O)CCCNCC2)sc1CCOc1ccccc1Cl.Cl (stereo not shown),-,31.32,-,-,-
NC(=O)C(NC1CCN(CC2CCCCC2)CC1)c1ccc(F)cc1 (stereo not shown),-3.043,14.92,-13.19,8.466,-25.49
CS(=O)(=O)Nc1ccc([C@H]2OCC(=O)N[C@@H]2CO)cc1,-3.127,10.44,-5.221,13.16,-
Cc1ocnc1C(=O)N1CCC2(CC1)c1nc[nH]c1CCN2CC(C)C,3.336,-,-8.591,7.503,9.311
O=C(O)C(F)(F)F.[H][C@@]12OCCN(CCOCc3ccccc3)[C@@]1([H])CC[C@@H]2OCC,-,26.43,-,-,-
COc1ccc2c(c1)ncn2C[C@]1(O)CCCN2CCCC[C@@H]21,-5.325,-,3.705,1.975,-12.61
CN1CCN(Cc2cccnc2)C2(CCN(C3CCOCC3)C2)C1=O (stereo not shown),-0.5622,-,8.981,-2.121,-32.02
[H][C@@]12CCN(c3ncccn3)[C@@]1([H])CCN2C(=O)NC1CC1,-,-0.1849,-,-,-
CC(C)(C)OC(=O)NCC1CCN(C(=O)c2ccccc2O)CC1,-4.686,-1.241,1.502,13.67,-32.63
O=C(NCCN1CCCCC1)c1ccn(-c2ccccc2)n1,15.29,1.306,3.055,0.6452,-24.06
[H][C@]12CCCCN1CCC[C@H]2CCC(=O)NCCc1nc(N)cc(O)n1,-,1.787,-,-,-
Cn1cnc2c1C(COCC1CCOCC1)CN(C(=O)C1CC=CC1)C2 (stereo not shown),-2.387,-,-5.907,1.269,-15.5
COc1ccc(N2CCN(C[C@@H](C)CO)CC2=O)cc1,-3.521,-1.095,-1.48,8.436,-30.33
c1coc(CN2CCc3onc(Cn4ccnc4)c3C2)c1,-3.66,-2.391,2.039,1.025,-33.09
c1cc(CN2CCCC(c3nnc(-c4cnccn4)o3)C2)ccn1 (stereo not shown),-,-5.964,-2.306,-2.354,9.183
CN(C)Cc1cc(=O)n2c(n1)CN(C(=O)Cc1ccsc1)CCC2,2.9,-,1.286,2.727,2.199
Cc1cc(CNc2cc(-c3ccoc3C)nn2CCO)c(C)o1,3.51,-11.75,-3.024,-0.4914,-3.214
Cn1cc(C2CCCN2C(=O)c2ccc(NC3CC3)nc2)cn1 (stereo not shown),6.676,8.734,-24.41,10.09,-29.24
COCc1cccc(NC(C)C(=O)N(C)Cc2ccccc2)c1 (stereo not shown),3.521,3.03,-4.791,9.251,-23.13
COCc1ccc(C(=O)N2CCCN(c3ccc(F)cc3)CC2)s1,3.391,-16.81,-15.4,0.3764,-26.31
CCn1ccnc1CN1CCN(c2ncnc3ccsc23)CC1C (stereo not shown),0.1487,12.47,-3.271,13.64,-15.71
Cc1nn(CC(C)C)cc1S(=O)(=O)N(C)Cc1nonc1C,-5.355,-12.96,-15.34,-9.693,1.818
O=C(c1cc[nH]n1)N1CCC(c2cc(Nc3ccccn3)n[nH]2)CC1,-7.373,13.21,-10.1,3.09,5.048
CC(C)N1CCOC[C@H]1c1nc(-c2ccncc2)c[nH]1,-1.449,5.33,-9.207,9.234,-33.12
CCN(CCO)C[C@@H]1CN(c2cccc(C(F)(F)F)n2)C[C@@H]1CO,-1.088,-8.854,-2.32,-0.3797,3.049
Cc1nc(CN2C[C@@H]3CN(C(=O)c4cnccn4)C[C@@H]3C2)cs1,-0.5757,-,-0.5542,7.527,-13.13
Cn1cc(C2NC3(CCCC3)C(=O)N2CC2CC2)c(=O)n(C)c1=O (stereo not shown),6.078,-2.045,-8.481,5.837,-2.607
Cc1cc(NC(=O)COC(=O)c2ccc(F)cc2Br)n(C)n1,-2.167,2.387,6.225,0.8929,-27.66
CC(C)C(C)(C#N)NC(=O)CN1CCCN(Cc2ccccc2F)CC1 (stereo not shown),-1.687,-9.562,0.6797,-36.66,-32.98
O=C1NCC(C(=O)N(Cc2ccc(C(F)(F)F)cc2)C2CC2)N1 (stereo not shown),1.102,-0.6699,1.085,-0.6046,-14.55
Cc1nc(CN2C(=O)COC3(CCN(Cc4ccco4)CC3)C2C)cs1 (stereo not shown),2.385,-,-8.297,4.086,-14.31
O=C(NCCS(=O)(=O)N1CCN(c2ncccn2)CC1)C1CC1,7.06,-5.582,3.456,8.549,-5.084
CCCNC(=O)c1nn(CC)cc1NC(=O)C(C)n1ncc(Cl)c1C (stereo not shown),1.905,-4.906,-9.681,-6.542,-16.36
CC(C)=CCN1C(=O)[C@H]2CC[C@@H]1CN(C(=O)CCc1n[nH]c(C)c1C)C2,-3.595,-,0.5452,1.527,0.01718
Cc1cccc(-c2ccc(C(=O)N3CCN(C(C)C)CC3)c(=O)[nH]2)c1,2.184,18.69,-7.009,-18.49,10.16

Some entries from above, unchanged:

With CCOCC1CCN(C(=O)C(c2cccc(F)c2)N(C)C)CC1 (stereo not shown) the screen gave MtTrpRS: -1.464%; Toxoplasma: 19.55%; ClpP1P2: -4.218%; CoaBC: -1.794%; Pks13 thioesterase: -16.75%.
With Cc1nc(CN2C[C@@H]3CN(C(=O)c4cnccn4)C[C@@H]3C2)cs1 the screen gave MtTrpRS: -0.5757%; ClpP1P2: -0.5542%; CoaBC: 7.527%; Pks13 thioesterase: -13.13%.
With CS(=O)(=O)Nc1ccc([C@H]2OCC(=O)N[C@@H]2CO)cc1 the screen gave MtTrpRS: -3.127%; Toxoplasma: 10.44%; ClpP1P2: -5.221%; CoaBC: 13.16%.
With COc1cccc(SCC(=O)N2CCC(N3CCCC(O)C3)CC2)c1 (stereo not shown) the screen gave MtTrpRS: 2.692%; Toxoplasma: -14.89%; ClpP1P2: -4.534%; CoaBC: 1.72%; Pks13 thioesterase: -23.62%.

From ChEMBL document CHEMBL3988442, “University of Dundee, Small-Polar-MMV Screening Library” (2021).